We go through 27 compounds from PubChem BioAssay AID256 (DTP/NCI, 2004).

In the experiment the test system is CD2F1 mice, L1210 leukemia ip, survival T/C. Put plainly: NCI In Vivo Anticancer Drug Screen. Data for tumor model L1210 Leukemia (intraperitoneal) in CD2F1 (CDF1) mice. The note with it: higher T/C = longer survival. The essentials:
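Antitumor effect is scored in animals hosting a serially transplanted tumor. Values compare compound-dosed animals against vehicle-only controls as a simple quotient.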

Where [1] appears, read: T/C endpoint: mean survival time, dose: 300.0 mg/kg/injection, schedule: Q01DX001 (ip), vehicle: saline.
Where [2] appears, read: T/C endpoint: mean survival time, dose: 200.0 mg/kg/injection, schedule: Q04DX003 (ip), vehicle: saline with Tween-80.
Setting [3] is: T/C endpoint: mean survival time, dose: 400.0 mg/kg/injection, schedule: Q04DX002 (ip), vehicle: saline with Tween-80.
The mark [4] stands for this setting: T/C endpoint: mean survival time, dose: 400.0 mg/kg/injection, schedule: Q04DX003 (ip), vehicle: saline with Tween-80.
Where [5] appears, read: T/C endpoint: median survival time, dose: 200.0 mg/kg/injection, schedule: Q01DX005 (ip), vehicle: saline with Tween-80.
Where [6] appears, read: T/C endpoint: mean survival time, dose: 400.0 mg/kg/injection, schedule: Q01DX009 (ip), vehicle: saline with Tween-80.
Setting [7] is: T/C endpoint: mean survival time, dose: 200.0 mg/kg/injection, schedule: Q01DX001 (ip), vehicle: saline with Tween-80.
Where [8] appears, read: T/C endpoint: mean survival time, dose: 200.0 mg/kg/injection, schedule: Q01DX001 (ip), vehicle: saline.
The mark [9] stands for this setting: T/C endpoint: mean survival time, dose: 400.0 mg/kg/injection, schedule: Q01DX001 (ip), vehicle: saline.

The list is a part of this screen's results and no random one: it is rich in T/C values a quarter to a half above the control, in often repeated tests (any T/C) and in doses without a T/C. Other doses and runs of a compound stand elsewhere. T/C is the treated group as % of the vehicle group. Some entries give survivors of the animals treated and no T/C: the source files T/C as zero there, which appears to mark a toxic dose or a test without result, not a measured value. Some survivor counts are full or nearly so, which does not show that the dose was tolerated: survival well below the control is almost never listed, so the zero probably covers shortened survival too. Counts of survivors are from the toxicity check (mostly the fifth day) where no day follows; animals may have died later. Schedule codes are those of the source, taken here to give the interval after Q, in days (D) or hours (H), and the number of doses after X. Some molecules as drawn cover several salts, stereoisomers or complexes of the source; a dose is that of the sample tested. Some doses were run more than once; the values are given in rising order. For survival time, this PubChem deposit counts one and a half times the control or more as active, and values a quarter to a half above the control carry no call in these data; other NCI protocols may use other cut-offs. Some T/C values are followed by the survivors on the day toxicity was checked, most often the fifth; without a count, all were alive then.

Turning to `CCC(C)C1NC(=O)C(NC(=O)c2c3nc4c(C(=O)NC5C(=O)NC(C(C)CC)C(=O)N6CCCC6C(=O)N(C)CC(=O)N(C)C(C(C)C)C(=O)OC5C)cc([N+](=O)[O-])c(C)c4oc-3c(C)c(=O)c2N)C(C)OC(=O)C(C(C)C)N(C)C(=O)CN(C)C(=O)C2CCCN2C1=O` (centres undefined), the survivor count by setting is: (T/C endpoint: mean survival time, dose: 0.8 mg/kg/injection, schedule: Q01DX009 (ip), vehicle: water) 6 of 6; (T/C endpoint: mean survival time, dose: 1.6 mg/kg/injection, schedule: Q01DX009 (ip), vehicle: water) 3 of 6.

`C#CC[N+](C)(C)CCNC(=O)CCCCCCCCCCCCCCC`: the survivor count (T/C endpoint: mean survival time, dose: 150.0 mg/kg/injection, schedule: Q01DX001 (ip), vehicle: saline) is on record as 0 of 6 and the survivor count under setting [1] is listed as 0 of 6.

As for `CN(Cc1cnc2nc(N)nc(N)c2n1)c1ccc(C(=O)NC(CCC(=O)O)C(=O)NC(CC(=O)O)C(=O)O)cc1` (centres undefined), the T/C (T/C endpoint: mean survival time, dose: 10.0 mg/kg/injection, schedule: Q01DX009 (ip), vehicle: sodium bicarbonate) was 132 % of control and the T/C (T/C endpoint: mean survival time, dose: 25.0 mg/kg/injection, schedule: Q01DX009 (ip), vehicle: sodium bicarbonate) is 147 % of control.

As for `CSc1ncnc2c1nnn2C1OC(COC(C)=O)C(OC(C)=O)C1OC(C)=O` (centres undefined), the T/C reads like this: (T/C endpoint: mean survival time, dose: 25.0 mg/kg/injection, schedule: Q01DX009 (ip), vehicle: DMSO) 125 % of control; (T/C endpoint: mean survival time, dose: 50.0 mg/kg/injection, schedule: Q01DX009 (ip), vehicle: DMSO) 135 % of control; (T/C endpoint: mean survival time, dose: 100.0 mg/kg/injection, schedule: Q01DX009 (ip), vehicle: DMSO) 144 % of control [4 of 6 alive]; (T/C endpoint: mean survival time, dose: 200.0 mg/kg/injection, schedule: Q01DX009 (ip), vehicle: DMSO) 147 % of control.

As for `Nc1ccc(CCc2ccccc2)cc1`, the T/C (T/C endpoint: mean survival time, dose: 100.0 mg/kg/injection, schedule: Q04DX002 (ip), vehicle: saline with Tween-80) was 92, 98, 100, 102 % of control and the T/C (T/C endpoint: mean survival time, dose: 200.0 mg/kg/injection, schedule: Q04DX002 (ip), vehicle: saline with Tween-80) is reported as 91, 98, 100, 114 % of control. Further, the survivor count runs as follows: under setting [2], 6 of 6; under setting [3], 1 of 3 and 4 of 6; under setting [4], 0 of 6.

Take `C[N+](C)(C)CC1CS1` (centres undefined): the survivor count by setting is: (T/C endpoint: mean survival time, dose: 75.0 mg/kg/injection, schedule: Q04DX003 (ip), vehicle: saline) 1 of 6; (T/C endpoint: mean survival time, dose: 150.0 mg/kg/injection, schedule: Q04DX003 (ip), vehicle: saline) 0 of 6; (T/C endpoint: mean survival time, dose: 300.0 mg/kg/injection, schedule: Q04DX003 (ip), vehicle: saline) 0 of 6.

As to `CN(C)N=Nc1ccc(C(N)=O)cc1C(N)=O`, for the setting “T/C endpoint: mean survival time, dose: 150.0 mg/kg/injection, schedule: Q01DX009 (ip), vehicle: Klucel (hydroxypropylcellulose) (HPC)”, the T/C was 139 and 148 % of control.

Regarding `CCOC(=S)S`, the survivor count (T/C endpoint: mean survival time, dose: 200.0 mg/kg/injection, schedule: Q04DX003 (ip), vehicle: saline) is recorded as 3 of 6 and the survivor count (T/C endpoint: mean survival time, dose: 400.0 mg/kg/injection, schedule: Q01DX009 (ip), vehicle: saline sonified) was 2 of 6.

For the compound `O=C(CBr)C(=O)CBr`, the survivor count reads like this: (T/C endpoint: mean survival time, dose: 2.5 mg/kg/injection, schedule: Q04DX003 (ip), vehicle: saline with Tween-80) 0 of 6; (T/C endpoint: mean survival time, dose: 5.0 mg/kg/injection, schedule: Q04DX003 (ip), vehicle: saline with Tween-80) 0 of 6; (T/C endpoint: mean survival time, dose: 10.0 mg/kg/injection, schedule: Q04DX003 (ip), vehicle: saline with Tween-80) 0 of 6.

Turning to `N#CSCc1ccccc1`, the survivor count was 1 of 3 (T/C endpoint: mean survival time, dose: 25.0 mg/kg/injection, schedule: Q01DX009 (ip), vehicle: saline with Tween-80); 0 of 3 and 1 of 3 (T/C endpoint: mean survival time, dose: 50.0 mg/kg/injection, schedule: Q01DX009 (ip), vehicle: saline with Tween-80); 0 of 3 (T/C endpoint: mean survival time, dose: 100.0 mg/kg/injection, schedule: Q01DX009 (ip), vehicle: saline with Tween-80); 0 of 3 (T/C endpoint: mean survival time, dose: 200.0 mg/kg/injection, schedule: Q01DX009 (ip), vehicle: saline with Tween-80).

In the case of `CS(C)=O.[Cl-].[Cl-].[NH-]CC(O)C[N-]CC(O)CN.[Pt+4]` (centres undefined), the survivor count (T/C endpoint: median survival time, dose: 100.0 mg/kg/injection, schedule: Q04DX003 (ip), vehicle: saline) is given as 6 of 6 and the survivor count (T/C endpoint: median survival time, dose: 200.0 mg/kg/injection, schedule: Q04DX003 (ip), vehicle: saline) is 3 of 6.

For `C[n+]1ccc(CCC(=O)Nc2ccccc2)cc1`, the survivor count under setting [4] is on record as 2 of 6.

Take `CC1([N+](=O)[O-])COC(c2ccc(Cl)cc2)OC1` (centres undefined): where the note is “T/C endpoint: mean survival time, dose: 400.0 mg/kg/injection, schedule: Q04DX003 (ip), vehicle: Klucel (hydroxypropylcellulose) (HPC)”, the survivor count was 1 of 3.

Turning to `O=C(O)C(Br)C(Br)C(=O)O` (centres undefined), for the setting “T/C endpoint: mean survival time, dose: 400.0 mg/kg/injection, schedule: Q01DX001 (ip), vehicle: carboxymethylcellulose (CMC)”, the survivor count is 2 of 4.

Regarding `CC(C)NCc1ccc2c(c1)OCO2`, the survivor count under setting [1] is 1 of 6.

Turning to `O=C1CN(c2ccccc2)C(=O)C1C(=O)Nc1ccc(Cl)c(Cl)c1` (centres undefined), the T/C (T/C endpoint: median survival time, dose: 72.0 mg/kg/injection, schedule: Q01DX005 (ip), vehicle: saline with Tween-80) was 101, 105, 106, 112 % of control; the T/C (T/C endpoint: median survival time, dose: 120.0 mg/kg/injection, schedule: Q01DX005 (ip), vehicle: saline with Tween-80) is 91, 125, 130, 136, 151 % of control; the T/C under setting [5] was 142 % of control [5 of 6 alive]. Moreover, the survivor count is, setting by setting: under setting [5], 0 of 6, 3 of 6, 4 of 6; (T/C endpoint: median survival time, dose: 240.0 mg/kg/injection, schedule: Q01DX005 (ip), vehicle: saline with Tween-80) 3 of 6; (T/C endpoint: median survival time, dose: 333.0 mg/kg/injection, schedule: Q01DX005 (ip), vehicle: saline with Tween-80) 0 of 6; (T/C endpoint: median survival time, dose: 333.3 mg/kg/injection, schedule: Q01DX005 (ip), vehicle: saline with Tween-80) 0 of 6; (T/C endpoint: median survival time, dose: 480.0 mg/kg/injection, schedule: Q01DX005 (ip), vehicle: saline with Tween-80) 0 of 6.

Take `COc1c(NC(C)=O)cc2c(c1C)OC(C)(C)C=C2`: the survivor count under setting [6] was 1 of 6.

Turning to `O=P(NC12CC3CC(CC(C3)C1)C2)(N1CC1)N1CC1`, the T/C is, setting by setting: (T/C endpoint: mean survival time, dose: 13.3 mg/kg/injection, schedule: Q04DX003 (ip), vehicle: Klucel (hydroxypropylcellulose) (HPC)) 128 % of control; (T/C endpoint: mean survival time, dose: 20.0 mg/kg/injection, schedule: Q04DX003 (ip), vehicle: Klucel (hydroxypropylcellulose) (HPC)) 142 % of control.

With `O=C(c1ccccc1)C1CC2(c3ccccc3)C(=O)C1(c1ccccc1)c1c2c2ccccc2c2ccccc12` (centres undefined), the survivor count under setting [7] is listed as 3 of 3.

In the case of `CC(=O)OC1CCC2(C)C(=CCC3C4CC(C=O)=C(Cl)NC4(C)CCC32)C1` (centres undefined), the survivor count under setting [7] was 6 of 6.

With `OC(c1ccccc1)(c1ccccc1)c1nc2ccccc2o1`, the survivor count under setting [6] is 3 of 6.

In the case of `CCCCCCCCCCCCCCCCCCOc1ccc(Cl)cc1`, the survivor count under setting [3] is 3 of 3.

Consider `CS(=O)(=O)OCC(=O)C(=O)COS(C)(=O)=O`, for which the survivor count by setting is: under setting [8], 1 of 6; under setting [9], 1 of 6.

On to `Cc1nc(-c2ccccc2)[nH]c(=O)c1CC(C)O` (centres undefined), for which, under setting [6], the survivor count is on record as 3 of 6.

For the compound `O=S(=O)(O)CS(=O)(=O)O.[Ag]`, the survivor count is 1 of 6 (T/C endpoint: mean survival time, dose: 100.0 mg/kg/injection, schedule: Q01DX001 (ip), vehicle: saline); 0 of 6 under setting [8]; 1 of 6 under setting [9].

With `O=C(CCl)N1CCC2(CC1)SSC1(CCN(C(=O)CCl)CC1)S2`, the survivor count reads like this: (T/C endpoint: mean survival time, dose: 100.0 mg/kg/injection, schedule: Q04DX003 (ip), vehicle: saline with Tween-80) 5 of 6; under setting [2], 0 of 6; under setting [4], 0 of 6.

`CC(C)(CNC1=NCCO1)NC1=NCCO1`: the survivor count (T/C endpoint: mean survival time, dose: 400.0 mg/kg/injection, schedule: Q04DX003 (ip), vehicle: saline) is 0 of 6.
